Article PMC6376957
No constants are given. Whether binding was seen depends on the method and setting. Binding seen in cells or lysates may run through a third protein. Sequences can lack the tags named with a protein.

Amino acid sequences for entries named in this document (tags omitted).
UniProt P05804: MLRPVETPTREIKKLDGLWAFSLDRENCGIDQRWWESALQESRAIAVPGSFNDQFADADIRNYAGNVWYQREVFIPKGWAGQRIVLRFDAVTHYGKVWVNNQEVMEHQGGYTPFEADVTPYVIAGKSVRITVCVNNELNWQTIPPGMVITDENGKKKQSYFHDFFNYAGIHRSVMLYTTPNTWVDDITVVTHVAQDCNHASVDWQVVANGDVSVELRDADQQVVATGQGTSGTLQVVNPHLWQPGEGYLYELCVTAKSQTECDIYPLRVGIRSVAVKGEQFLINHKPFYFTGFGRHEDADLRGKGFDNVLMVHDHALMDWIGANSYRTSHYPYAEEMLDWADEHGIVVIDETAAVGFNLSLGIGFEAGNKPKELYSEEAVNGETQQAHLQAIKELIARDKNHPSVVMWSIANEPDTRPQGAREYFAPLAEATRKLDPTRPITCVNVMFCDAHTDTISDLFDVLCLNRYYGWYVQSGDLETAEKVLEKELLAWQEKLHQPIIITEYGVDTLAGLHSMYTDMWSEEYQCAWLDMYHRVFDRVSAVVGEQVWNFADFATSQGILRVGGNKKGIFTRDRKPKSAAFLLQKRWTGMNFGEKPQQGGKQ

Target: GUS fused to nYFP (BiFC negative control, in place of OsFTL10) (UniProt P05804)
Test: split reporter; BiFC in rice protoplasts: GF14c in p35S::cYFP, OsFTL10 in p35S::nYFP; live cell imaging by confocal microscope; GUS in place of either partner as negative control

binding: no binding
B1: GF14c fused to cYFP (BiFC) (protein, UniProt Q6ZKC0 1-256)
chain: MSREENVYMAKLAEQAERYEEMVEYMEKVAKTVDVEELTVEERNLLSVAYKNVIGARRASWRIVSSIEQKEEGRGNEEHVTLIKEYRGKIEAELSKICDGILKLLDSHLVPSSTAAESKVFYLKMKGDYHRYLAEFKTGAERKEAAESTMVAYKAAQDIALADLAPTHPIRLGLALNFSVFYYEILNSPDKACNLAKQAFDEAISELDTLGEESYKDSTLIMQLLRDNLTLWTSDLTEDGGDEVKEASKGDACEGQ
